US20110245249A1, “Heterocyclically Substituted Anilinopyrimidines” (Bayer CropScience AG, priority 2008, published 2011)
Some results were stated once for a whole list of compounds, not compound by compound.

Legend:
Assay type in all cases: in vivo
Sphaerotheca fuliginea = assay: Sphaerotheca test (cucumber)/protective; conditions: protective, active compound concentration 500 ppm, evaluation 7 days after inoculation
Leptosphaeria nodorum = Leptosphaeria nodorum test (wheat)/protective; conditions: protective, active compound concentration 500 ppm, evaluation 7-9 days after inoculation
Septoria tritici = Septoria tritici test (wheat)/protective; conditions: protective, active compound concentration 500 ppm, evaluation 21 days after inoculation
Venturia inaequalis = assay: Venturia test (apple)/protective; conditions: protective, active compound concentration 100 ppm, evaluation 10 days after inoculation

Structure (SMILES)	efficacy (Sphaerotheca fuliginea)	efficacy (Leptosphaeria nodorum)	efficacy (Septoria tritici)	efficacy (Venturia inaequalis)
COCC(C)Nc1nc(Nc2cccc(C3OCCO3)c2)ncc1Cl (centres unmarked) [Example 61]	≥ 70%	≥ 70%		
Fc1ccc(Nc2ncc(Br)c(NC3CCC3)n2)cc1C1OCCO1 [Example 142]		≥ 70%		
Clc1cnc(Nc2cccc(C3OCC(c4ccccc4)O3)c2)nc1NC1CC1 (centres unmarked) [Example 29]	≥ 70%			
Fc1ccc(Nc2ncc(C(F)(F)F)c(NC3CC3)n2)cc1C1OCCCO1 [Example 147]		≥ 70%		
C=CCOCC1COC(c2cccc(Nc3ncc(Br)c(NC4CC4)n3)c2)O1 (centres unmarked) [Example 107]	≥ 70%	≥ 70%	≥ 70%	
Brc1cnc(Nc2cccc(C3OC4COCC4O3)c2)nc1NC1CCC1 (centres unmarked) [Example 119]	≥ 70%	≥ 70%		
CCC1COC(c2cccc(Nc3ncc(Br)c(NC4CC4)n3)c2)O1 (centres unmarked) [Example 150]	≥ 70%	≥ 70%	≥ 70%	
CC1(C)OC(c2cccc(Nc3ncc(Cl)c(NC4CC4)n3)c2)OC1(C)C [Example 158]		≥ 70%		
CC1(c2cccc(Nc3ncc(C(F)(F)F)c(NC4CCC4)n3)c2)OCCCO1 [Example 69]		≥ 70%		
CCCOCC1COC(c2cccc(Nc3ncc(Cl)c(NC4CC4)n3)c2)O1 (centres unmarked) [Example 96]	≥ 70%	≥ 70%		
Clc1cnc(Nc2cccc(C3OCC4(CCC4)CO3)c2)nc1NC1CC1 [Example 103]		≥ 70%		
FC(F)CNc1nc(Nc2cccc(C3OCCO3)c2)ncc1Cl [Example 60]	≥ 70%	≥ 70%		
CC1(C)CC(C)(C)OC(c2cccc(Nc3ncc(Cl)c(NC4CC4)n3)c2)O1 [Example 102]		≥ 70%		
OCC1CSC(c2cccc(Nc3ncc(Br)c(NC4CCC4)n3)c2)S1 (centres unmarked) [Example 164]	≥ 70%	≥ 70%		
Clc1cnc(Nc2cccc(C3OCCCCO3)c2)nc1NC1CC1 [Example 126]		≥ 70%	≥ 70%	
CCCCC1COC(c2cccc(Nc3ncc(Cl)c(NC4CC4)n3)c2)O1 (centres unmarked) [Example 39]	≥ 70%	≥ 70%	≥ 70%	
CC(C)(C)OCC1COC(c2cccc(Nc3ncc(Cl)c(NC4CC4)n3)c2)O1 (centres unmarked) [Example 95]	≥ 70%	≥ 70%		
Clc1cnc(Nc2cccc(C3OCC(C4CC4)CO3)c2)nc1NC1CC1 (centres unmarked) [Example 93]		≥ 70%		
COc1ccc(Nc2ncc(Br)c(NC3CCC3)n2)cc1C1OCCO1 [Example 139]	≥ 70%	≥ 70%		
Fc1cnc(Nc2cccc(C3OCCO3)c2)nc1NC1CC1 [Example 59]	≥ 70%	≥ 70%		≥ 70%
FC(F)(F)c1cnc(Nc2cccc(C3OC4COCC4O3)c2)nc1NC1CCC1 (centres unmarked) [Example 112]	≥ 70%	≥ 70%		
CC1(c2cccc(Nc3ncc(C(F)(F)F)c(NCC4CC4)n3)c2)OCCCO1 [Example 68]		≥ 70%	≥ 70%	
CC1(C)COC(C)(c2cccc(Nc3ncc(C(F)(F)F)c(NC4CC4)n3)c2)OC1 [Example 73]		≥ 70%		

Structure (SMILES)	efficacy (Sphaerotheca fuliginea)	efficacy (Leptosphaeria nodorum)	efficacy (Septoria tritici)	efficacy (Venturia inaequalis)
CCOCCOCC1COC(c2cccc(Nc3ncc(Cl)c(NC4CC4)n3)c2)O1 (centres unmarked) [Example 154]		≥ 70%	≥ 70%	
CCC1COC(c2cccc(Nc3ncc(Br)c(NC4CCC4)n3)c2)O1 (centres unmarked) [Example 89]		≥ 70%	≥ 70%	
CCOC1COC(c2cccc(Nc3ncc(Cl)c(NC4CC4)n3)c2)OC1 (centres unmarked) [Example 125]		≥ 70%	≥ 70%	
FC(F)(F)CNc1nc(Nc2cccc(C3OCCO3)c2)ncc1Cl [Example 45]	≥ 70%	≥ 70%		
Brc1cnc(Nc2cccc(C3OCC(C4CC4)CO3)c2)nc1NC1CC1 (centres unmarked) [Example 79]		≥ 70%		
Clc1cnc(Nc2cccc(C3OCCC(c4ccccc4)O3)c2)nc1NC1CC1 (centres unmarked) [Example 94]		≥ 70%		
CC1CSC(c2cccc(Nc3ncc(Br)c(NC4CCC4)n3)c2)S1 (centres unmarked) [Example 165]	≥ 70%	≥ 70%	≥ 70%	
CC1CC(C(F)(F)F)OC(c2cccc(Nc3ncc(Cl)c(NC4CC4)n3)c2)O1 (centres unmarked) [Example 124]		≥ 70%		
C=CCOCC1COC(c2cccc(Nc3ncc(C(F)(F)F)c(NC4CC4)n3)c2)O1 (centres unmarked) [Example 108]	≥ 70%	≥ 70%	≥ 70%	
CC(C)Nc1nc(Nc2cccc(C3OCCCO3)c2)ncc1Cl [Example 149]		≥ 70%	≥ 70%	
COCC1COC(c2cccc(Nc3ncc(Cl)c(NC4CCC4)n3)c2)O1 (centres unmarked) [Example 114]	≥ 70%	≥ 70%		
CCC1(CO)COC(c2cccc(Nc3ncc(Cl)c(NC4CC4)n3)c2)OC1 (centres unmarked) [Example 159]		≥ 70%	≥ 70%	≥ 70%
Brc1cnc(Nc2ccc(C3OCCCO3)cc2)nc1NC1CCC1 [Example 77]		≥ 70%		
Fc1cnc(Nc2cccc(C3OCCCO3)c2)nc1NC1CC1 [Example 51]		≥ 70%		≥ 70%
CC1CCC2OC(c3cccc(Nc4ncc(Cl)c(NC5CC5)n4)c3)OC12 (centres unmarked) [Example 157]		≥ 70%		
CC(C)OC(OC(C)C)c1cccc(Nc2ncc(Cl)c(NC3CC3)n2)c1 [Example 65]		≥ 70%		≥ 70%
CC(C)(C)C1CCOC(c2cccc(Nc3ncc(C(F)(F)F)c(NC4CC4)n3)c2)O1 (centres unmarked) [Example 122]		≥ 70%		
Fc1ccc(Nc2ncc(C(F)(F)F)c(NC3CC3)n2)cc1C1OCCO1 [Example 143]	≥ 70%	≥ 70%	≥ 70%	
CC1COC(c2cccc(Nc3ncc(C(F)(F)F)c(NC4CC4)n3)c2)O1 (centres unmarked) [Example 83]	≥ 70%	≥ 70%	≥ 70%	
COc1ccc(Nc2ncc(Br)c(NC3CC3)n2)cc1C1OCCO1 [Example 138]		≥ 70%		
CC1CSC(c2cccc(Nc3ncc(Cl)c(NC4CCC4)n3)c2)S1 (centres unmarked) [Example 163]	≥ 70%	≥ 70%	≥ 70%	≥ 70%
COc1ccc(Nc2ncc(Cl)c(NC3CC3)n2)cc1C1OCCO1 [Example 137]		≥ 70%		
Clc1cnc(Nc2cccc(C3OCCCO3)c2)nc1NCC1CC1 [Example 152]		≥ 70%		

Structure (SMILES)	efficacy (Sphaerotheca fuliginea)	efficacy (Leptosphaeria nodorum)	efficacy (Septoria tritici)	efficacy (Venturia inaequalis)
CC(C)Nc1nc(Nc2cccc(C3OCCO3)c2)ncc1Cl [Example 148]	≥ 70%	≥ 70%	≥ 70%	
CC1(C)COC(c2cccc(Nc3ncc(Cl)c(NC4CCC4)n3)c2)OC1 [Example 19]	≥ 70%	≥ 70%		
Fc1ccc(Nc2ncc(Cl)c(NC3CC3)n2)cc1C1OCCCO1 [Example 144]	≥ 70%	≥ 70%		
C=CCOCC1COC(c2cccc(Nc3ncc(C(F)(F)F)c(NC4CCC4)n3)c2)O1 (centres unmarked) [Example 109]		≥ 70%		
CCCCCCC1COC(c2cccc(Nc3ncc(Cl)c(NC4CC4)n3)c2)O1 (centres unmarked) [Example 38]	≥ 70%			
CCC1COC(c2cccc(Nc3ncc(Cl)c(NC4CCC4)n3)c2)O1 (centres unmarked) [Example 90]	≥ 70%	≥ 70%		
Fc1ccc(Nc2ncc(Br)c(NC3CCC3)n2)cc1C1OCCCO1 [Example 146]		≥ 70%		
COCC1COC(c2cccc(Nc3ncc(C(F)(F)F)c(NC4CCC4)n3)c2)O1 (centres unmarked) [Example 106]		≥ 70%		
COc1ccc(Nc2ncc(C(F)(F)F)c(NC3CC3)n2)cc1C1OCCCO1 [Example 136]		≥ 70%		
CC1(C)COC(c2cccc(Nc3ncc(Br)c(NC4CCC4)n3)c2)OC1 [Example 21]	≥ 70%	≥ 70%		
CC1COC(c2cccc(Nc3ncc(Br)c(NC4CCC4)n3)c2)O1 (centres unmarked) [Example 85]		≥ 70%	≥ 70%	
C=CCOCC1COC(c2cccc(Nc3ncc(Br)c(NC4CCC4)n3)c2)O1 (centres unmarked) [Example 117]	≥ 70%	≥ 70%	≥ 70%	
FC(F)CNc1nc(Nc2cccc(C3OCCCO3)c2)ncc1Cl [Example 52]				≥ 70%
CC1(C)COC(C)(c2cccc(Nc3ncc(Cl)c(NC4CC4)n3)c2)OC1 [Example 71]	≥ 70%	≥ 70%		
CC1COC(C)(c2cccc(Nc3ncc(C(F)(F)F)c(NC4CC4)n3)c2)O1 (centres unmarked) [Example 72]	≥ 70%	≥ 70%		
Brc1cnc(Nc2cccc(C3OC4COCC4O3)c2)nc1NC1CC1 (centres unmarked) [Example 110]	≥ 70%	≥ 70%		
CC1COC(c2cccc(Nc3ncc(C(F)(F)F)c(NC4CCC4)n3)c2)O1 (centres unmarked) [Example 87]	≥ 70%	≥ 70%	≥ 70%	
CC1COC(c2cccc(Nc3ncc(Cl)c(NC4CCC4)n3)c2)O1 (centres unmarked) [Example 86]	≥ 70%	≥ 70%		
COCC(C)Nc1nc(Nc2cccc(C3OCCCO3)c2)ncc1Cl (centres unmarked) [Example 56]	≥ 70%			
OCC1CSC(c2cccc(Nc3ncc(Br)c(NC4CC4)n3)c2)S1 (centres unmarked) [Example 166]	≥ 70%	≥ 70%		
OCC1CSC(c2cccc(Nc3ncc(C(F)(F)F)c(NC4CC4)n3)c2)S1 (centres unmarked) [Example 168]	≥ 70%	≥ 70%		
CC1CC1Nc1nc(Nc2cccc(C3OCCO3)c2)ncc1C(F)(F)F (centres unmarked) [Example 129]		≥ 70%		
CCC1COC(c2cccc(Nc3ncc(C(F)(F)F)c(NC4CCC4)n3)c2)O1 (centres unmarked) [Example 113]		≥ 70%		
